From article PMC12590808
No constants are given. Whether binding was seen depends on the method and setting. Binding seen in cells or lysates may run through a third protein. A result given as binding can be weak or reduced; the word gives no strength.

Chains of the proteins cited; added tags and fusions are not shown. Lines headed by an entry give the natural chain unless they say otherwise; changes in a name come on top.
UniProt A2EKE3: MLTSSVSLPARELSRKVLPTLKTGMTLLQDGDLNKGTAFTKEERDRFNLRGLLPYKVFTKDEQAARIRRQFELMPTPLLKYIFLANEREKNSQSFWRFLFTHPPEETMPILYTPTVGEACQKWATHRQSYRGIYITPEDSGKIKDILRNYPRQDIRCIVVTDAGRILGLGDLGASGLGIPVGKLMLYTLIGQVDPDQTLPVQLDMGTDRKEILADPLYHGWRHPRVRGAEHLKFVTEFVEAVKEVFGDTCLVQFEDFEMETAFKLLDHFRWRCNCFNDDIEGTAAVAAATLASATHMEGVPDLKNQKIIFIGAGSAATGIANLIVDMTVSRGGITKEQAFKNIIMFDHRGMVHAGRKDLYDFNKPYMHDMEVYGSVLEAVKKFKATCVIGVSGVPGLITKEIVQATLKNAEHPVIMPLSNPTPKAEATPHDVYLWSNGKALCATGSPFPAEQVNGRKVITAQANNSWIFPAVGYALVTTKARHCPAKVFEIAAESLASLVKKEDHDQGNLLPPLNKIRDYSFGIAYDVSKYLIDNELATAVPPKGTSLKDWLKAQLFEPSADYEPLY

Molecular target: Trichomonas vaginalis adhesion protein 65 (Trichomonas vaginalis) (UniProt A2EKE3)
Assay: co-IP; 293 T cells co-transfected with pDsRed-N1-Flag-SPCS1 and pCMV-3HA-TvAP65, harvested after 24 h; anti-HA antibody (mouse IgG as control) on Protein A + G magnetic beads; lysate mixed at room temperature for 2 h; eluate analysed by Western blotting

B1: signal peptidase complex subunit 1 (protein, UniProt Q9Y6A9 1-169)
chain: MARGGDTGCTGPSETSASGAAAIALPGLEGPATDAQCQTLPLTVLKSRSPSPRSLPPALSCPPPQPAMLEHLSSLPTQMDYKGQKLAEQMFQGIILFSAIVGFIYGYVAEQFGWTVYIVMAGFAFSCLLTLPPWPIYRRHPLKWLPVQESSTDDKKPGERKIKRHAKNN
  binding: binds
